In PMC11412978:
Read-outs that look alike come from different tables or passages of the source. Results are given in words; binding and its absence hold for the method and conditions named. Binding seen in cells or lysates may run through a third protein. Some binding calls cover weakened binding; strength is not graded here. For some assays here: Where a sequence is shown, tags or fusion partners need not be part of it.

Chains of the proteins cited; added tags and fusions are not shown. Lines headed by an entry give the natural chain unless they say otherwise; changes in a name come on top.
UniProt P35579: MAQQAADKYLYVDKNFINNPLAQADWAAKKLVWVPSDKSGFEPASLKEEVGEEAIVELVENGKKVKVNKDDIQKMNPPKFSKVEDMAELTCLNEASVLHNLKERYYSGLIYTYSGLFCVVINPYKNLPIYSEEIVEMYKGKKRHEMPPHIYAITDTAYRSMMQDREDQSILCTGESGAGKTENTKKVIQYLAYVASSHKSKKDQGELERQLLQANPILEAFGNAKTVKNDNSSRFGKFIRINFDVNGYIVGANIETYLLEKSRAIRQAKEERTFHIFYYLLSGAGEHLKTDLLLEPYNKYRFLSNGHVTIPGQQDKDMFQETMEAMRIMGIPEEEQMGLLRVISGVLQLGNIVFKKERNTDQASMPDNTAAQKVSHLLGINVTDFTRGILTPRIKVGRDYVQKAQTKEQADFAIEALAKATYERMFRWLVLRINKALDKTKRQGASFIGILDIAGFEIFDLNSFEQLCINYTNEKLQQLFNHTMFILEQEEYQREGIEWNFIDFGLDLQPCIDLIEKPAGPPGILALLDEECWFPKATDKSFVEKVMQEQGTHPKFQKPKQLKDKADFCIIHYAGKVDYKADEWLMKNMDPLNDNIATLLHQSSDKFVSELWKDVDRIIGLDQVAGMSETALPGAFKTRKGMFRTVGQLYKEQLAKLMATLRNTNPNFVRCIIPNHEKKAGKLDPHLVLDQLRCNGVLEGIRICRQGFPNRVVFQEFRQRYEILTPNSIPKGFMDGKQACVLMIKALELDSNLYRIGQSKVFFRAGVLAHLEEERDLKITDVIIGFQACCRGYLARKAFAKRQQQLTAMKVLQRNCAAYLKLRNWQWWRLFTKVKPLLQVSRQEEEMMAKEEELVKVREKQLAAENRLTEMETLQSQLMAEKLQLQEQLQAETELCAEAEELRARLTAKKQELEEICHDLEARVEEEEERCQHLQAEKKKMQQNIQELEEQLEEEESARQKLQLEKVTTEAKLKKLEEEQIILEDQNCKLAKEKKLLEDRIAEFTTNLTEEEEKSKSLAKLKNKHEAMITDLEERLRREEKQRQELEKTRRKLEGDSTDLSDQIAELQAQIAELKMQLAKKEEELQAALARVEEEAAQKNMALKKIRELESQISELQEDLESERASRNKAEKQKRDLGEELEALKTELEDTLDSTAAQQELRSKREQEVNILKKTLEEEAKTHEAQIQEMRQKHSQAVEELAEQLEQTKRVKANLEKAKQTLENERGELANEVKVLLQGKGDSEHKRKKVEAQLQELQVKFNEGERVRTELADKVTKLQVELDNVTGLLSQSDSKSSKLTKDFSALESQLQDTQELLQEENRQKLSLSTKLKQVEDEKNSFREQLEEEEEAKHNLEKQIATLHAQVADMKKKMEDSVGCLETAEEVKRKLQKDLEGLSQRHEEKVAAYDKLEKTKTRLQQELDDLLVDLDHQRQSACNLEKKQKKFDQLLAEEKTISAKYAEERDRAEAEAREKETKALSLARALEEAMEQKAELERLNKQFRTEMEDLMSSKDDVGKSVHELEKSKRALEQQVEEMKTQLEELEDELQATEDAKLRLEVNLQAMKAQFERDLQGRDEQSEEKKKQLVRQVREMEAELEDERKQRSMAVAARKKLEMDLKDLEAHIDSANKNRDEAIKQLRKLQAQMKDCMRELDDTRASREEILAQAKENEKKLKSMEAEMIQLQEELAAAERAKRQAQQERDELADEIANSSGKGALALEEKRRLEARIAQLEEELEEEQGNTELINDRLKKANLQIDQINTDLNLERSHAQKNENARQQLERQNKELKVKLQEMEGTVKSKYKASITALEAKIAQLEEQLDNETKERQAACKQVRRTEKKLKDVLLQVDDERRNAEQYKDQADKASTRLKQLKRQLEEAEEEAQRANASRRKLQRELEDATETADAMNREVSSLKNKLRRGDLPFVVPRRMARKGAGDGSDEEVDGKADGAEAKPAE
UniProt Q16665: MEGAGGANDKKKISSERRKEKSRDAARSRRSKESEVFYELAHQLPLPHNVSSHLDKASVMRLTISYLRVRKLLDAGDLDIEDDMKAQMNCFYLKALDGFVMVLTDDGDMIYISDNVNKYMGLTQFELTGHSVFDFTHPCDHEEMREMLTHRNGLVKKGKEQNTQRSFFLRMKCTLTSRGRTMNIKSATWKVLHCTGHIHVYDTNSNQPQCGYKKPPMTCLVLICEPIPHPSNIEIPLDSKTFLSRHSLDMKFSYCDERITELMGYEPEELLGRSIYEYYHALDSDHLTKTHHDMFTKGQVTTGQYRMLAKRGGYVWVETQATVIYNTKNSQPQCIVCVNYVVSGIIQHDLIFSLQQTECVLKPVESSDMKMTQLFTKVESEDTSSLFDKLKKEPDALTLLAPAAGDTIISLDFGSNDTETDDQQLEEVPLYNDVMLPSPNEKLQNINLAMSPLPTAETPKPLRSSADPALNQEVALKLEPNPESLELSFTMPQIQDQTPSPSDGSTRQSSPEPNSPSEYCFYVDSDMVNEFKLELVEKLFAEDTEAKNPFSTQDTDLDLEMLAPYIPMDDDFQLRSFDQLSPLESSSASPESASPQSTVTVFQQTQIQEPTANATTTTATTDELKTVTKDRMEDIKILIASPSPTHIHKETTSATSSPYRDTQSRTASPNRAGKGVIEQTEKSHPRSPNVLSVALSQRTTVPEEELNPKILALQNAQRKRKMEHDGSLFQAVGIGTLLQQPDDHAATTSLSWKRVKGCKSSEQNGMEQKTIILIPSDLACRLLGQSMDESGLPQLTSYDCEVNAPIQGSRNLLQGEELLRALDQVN

Key:
[1] = molecular target: myc-tagged MYH9 (wild type) (UniProt P35579); test: co-IP; HEK-293T cells cotransfected with myc-tagged and Flag-tagged plasmids; immunoprecipitation and western blot of the tags
myc-tagged MYH9-S1943E [2] = molecular target: myc-tagged MYH9-S1943E (UniProt P35579); test: as above
[3] = molecular target: hypoxia-inducible factor-1α (endogenous) (human (endogenous in SNU-387, SNU-387-LR, Hep-3B-LR, HuH-7-LR)) (UniProt Q16665); test: co-IP; endogenous proteins in lysates of HCC lenvatinib-resistant cells (Hep-3B-LR, HuH-7-LR); IgG as control
[4] = molecular target: hypoxia-inducible factor-1α (endogenous) (human (endogenous in SNU-387, SNU-387-LR, Hep-3B-LR, HuH-7-LR)) (UniProt Q16665); test: as above; remark: listed apart in the source
[5] = molecular target: non-muscle myosin heavy chain 9 (endogenous) (human (endogenous in SNU-387-LR, Hep-3B-LR, HuH-7-LR)) (UniProt P35579); test: as above
[6] = molecular target: myc-tagged MYH9 (wild type) (UniProt P35579); test: co-IP; HEK-293T cells cotransfected with myc-tagged and Flag-tagged plasmids; immunoprecipitation and western blot of the tags; remark: listed apart in the source
myc-tagged MYH9-S1943A = myc-tagged MYH9-S1943A (UniProt P35579); test: as above
myc-tagged MYH9-S1943E [7] = molecular target: myc-tagged MYH9-S1943E (UniProt P35579); test: as above; remark: listed apart in the source

With “Flag-tagged HIF-1α (from UniProt Q16665 1-826)” the binding [1] was “binds” and the binding (myc-tagged MYH9-S1943E [2]) was “binds”.

In the case of “non-muscle myosin heavy chain 9 (endogenous) (from UniProt P35579 1-1960)”, the binding [3] is reported as “binds”.

B1: ubiquitin-specific protease 22 (endogenous) (enzyme, UniProt Q9UPT9 1-525)
chain: MVSRPEPEGEAMDAELAVAPPGCSHLGSFKVDNWKQNLRAIYQCFVWSGTAEARKRKAKSCICHVCGVHLNRLHSCLYCVFFGCFTKKHIHEHAKAKRHNLAIDLMYGGIYCFLCQDYIYDKDMEIIAKEEQRKAWKMQGVGEKFSTWEPTKRELELLKHNPKRRKITSNCTIGLRGLINLGNTCFMNCIVQALTHTPLLRDFFLSDRHRCEMQSPSSCLVCEMSSLFQEFYSGHRSPHIPYKLLHLVWTHARHLAGYEQQDAHEFLIAALDVLHRHCKGDDNGKKANNPNHCNCIIDQIFTGGLQSDVTCQVCHGVSTTIDPFWDISLDLPGSSTPFWPLSPGSEGNVVNGESHVSGTTTLTDCLRRFTRPEHLGSSAKIKCSGCHSYQESTKQLTMKKLPIVACFHLKRFEHSAKLRRKITTYVSFPLELDMTPFMASSKESRMNGQYQQPTDSLNNDNKYSLFAVVNHQGTLESGHYTSFIRQHKDQWFKCDDAIITKASIKDVLDSEGYLLFYHKQFLEYE
In the case of B1, the binding [4] is reported as “binds” and the binding [5] is reported as “binds”.

B2: Flag-tagged USP22 (enzyme, UniProt Q9UPT9 1-525)
chain: MVSRPEPEGEAMDAELAVAPPGCSHLGSFKVDNWKQNLRAIYQCFVWSGTAEARKRKAKSCICHVCGVHLNRLHSCLYCVFFGCFTKKHIHEHAKAKRHNLAIDLMYGGIYCFLCQDYIYDKDMEIIAKEEQRKAWKMQGVGEKFSTWEPTKRELELLKHNPKRRKITSNCTIGLRGLINLGNTCFMNCIVQALTHTPLLRDFFLSDRHRCEMQSPSSCLVCEMSSLFQEFYSGHRSPHIPYKLLHLVWTHARHLAGYEQQDAHEFLIAALDVLHRHCKGDDNGKKANNPNHCNCIIDQIFTGGLQSDVTCQVCHGVSTTIDPFWDISLDLPGSSTPFWPLSPGSEGNVVNGESHVSGTTTLTDCLRRFTRPEHLGSSAKIKCSGCHSYQESTKQLTMKKLPIVACFHLKRFEHSAKLRRKITTYVSFPLELDMTPFMASSKESRMNGQYQQPTDSLNNDNKYSLFAVVNHQGTLESGHYTSFIRQHKDQWFKCDDAIITKASIKDVLDSEGYLLFYHKQFLEYE
B2 was tested, and the binding [6] was “binds”, the binding (myc-tagged MYH9-S1943A) was “no binding” and the binding (myc-tagged MYH9-S1943E [7]) was “binds”.
